Data: article PMC3983030, “Ras GTPase-Like Protein MglA, a Controller of Bacterial Social-Motility in Myxobacteria, Has Evolved to Control Bacterial Predation by Bdellovibrio” (PLoS Genetics, 2014)
These are yes or no findings as the source states them, for the method shown. For some assays here: In cells and extracts the contact can be indirect. Some binding calls cover weakened binding; strength is not graded here. Tags and fused reporters may be left off the sequences shown.

T1: pKT25-Bd2492 (Bd2492 fused to the T25 fragment of adenylate cyclase) (Bdellovibrio bacteriovorus HD100) (UniProt Q6MKB3)
T1 sequence: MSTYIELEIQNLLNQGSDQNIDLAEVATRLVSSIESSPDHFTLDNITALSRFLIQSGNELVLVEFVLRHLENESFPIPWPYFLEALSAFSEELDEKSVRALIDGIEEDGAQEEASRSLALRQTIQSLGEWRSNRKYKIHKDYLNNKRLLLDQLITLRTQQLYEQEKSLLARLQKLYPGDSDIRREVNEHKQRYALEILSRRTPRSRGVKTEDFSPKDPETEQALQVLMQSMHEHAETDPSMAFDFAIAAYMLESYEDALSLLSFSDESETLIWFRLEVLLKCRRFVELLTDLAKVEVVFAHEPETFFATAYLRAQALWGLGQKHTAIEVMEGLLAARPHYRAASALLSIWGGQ

T2: His6-tagged Bd2492 (Bd2492-His6) expressed in E. coli from plasmid pD2492N/3734 (Bdellovibrio bacteriovorus HD100) (UniProt Q6MKB3)
T2 sequence: T1 sequence

B1: pUT18C-MglA (MglABd fused to the T18 fragment of adenylate cyclase) (protein, UniProt Q6MH29 1-197)
chain: MSFINYNAKEIHCKVVYYGPSLGGKTTNIQWVYQKTAEDQKSKLVALNTDIERTLFFDFLPLNVGDIRGFKTRFHLYTVPGQVVYDASRKLILKGLDGVIFVADSQIERMDENLESLRNLERNLEQQGYDIREIPLIMQYNKRDLPNVASLAELRSALNPYNAPEIEGCASEGRGVFESLKTVSKSIINVLKGGTTL
B2: MglA (Bd3734) co-expressed in E. coli from plasmid pD2492N/3734 (natural protein, Bdellovibrio bacteriovorus HD100, UniProt Q6MH29 1-197, looked up)
chain: B1 chain
notes: MglA (Bd3734) of Bdellovibrio bacteriovorus HD100; No tag is named on MglA in this construct; source: E. coli, heterologously co-expressed with Bd2492-His6 from plasmid pD2492N/3734

Assays:
[1] = target: T1, pKT25-Bd2492 (Bd2492 fused to the T25 fragment of adenylate cyclase) (Bdellovibrio bacteriovorus HD100); assay: two-hybrid; bacterial two-hybrid with T18 and T25 fragments of adenylate cyclase (pUT18C, pKT25, pKNT25); spot tests and beta-galactosidase assay
[2] = target: T2, His6-tagged Bd2492 (Bd2492-His6) expressed in E. coli from plasmid pD2492N/3734 (Bdellovibrio bacteriovorus HD100); assay: pull-down; nickel-affinity chromatography of E. coli lysates co-expressing MglA and His6-tagged Bd2492 from plasmid pD2492N/3734; elution with 40 mM and 200 mM imidazole

Binder | binding [1] | binding [2]
B1 | binds | 
B2 |  | binds
